PubChem BioAssay AID1224828, NIAID – 2016
This is a random part of about 17,000 deposited reagents. 762 of all reagents (4.5%) were called active. 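Active calls include both raised and lowered p65 entry, mostly lowered; wells with fewer than 50 cells lack a z-score.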 The raw values are shown without normalisation.

Test: 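Regulators linking TLR4 signalling to p65 nuclear translocation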 (primary screen)
Cell system: mouse RAW264.7 G9 macrophage reporter cells (GFP-p65, Tnf promoter-mCherry)
Reagent: siRNA pool against mouse genes, 100 nM
Time to read-out: 2 days siRNA transfection, then 40 min LPS before fixation
Challenge: LPS (Salmonella minnesota R595) at 10 ng/ml
Read-out: 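Microscopy ratio of nuclear to perinuclear-ring GFP-p65 signal, scaled to the plate median; gene score is the average of two replicate robust z-scores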
Direction: p65 translocation robust z-score: higher = more nuclear NF-kappaB p65 after LPS than the plate median; nuclear/cytoplasmic p65 ratio: higher = more nuclear NF-kappaB p65
Rule for the call: 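Active if robust z is above 3.3 (negative regulators) or below -1.56, the Tlr4 control median (positive regulators); activity score 50 or more; control wells not called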
Meaning of the calls: active = hit (p65 shift raised or lowered); inactive = no clear change

Krt75 (keratin 75): p65 translocation robust z-score = -0.82; nuclear/cytoplasmic p65 ratio, rep 1 = 1.35; nuclear/cytoplasmic p65 ratio, rep 2 = 1.28; low cell count flag = enough cells to score; activity call = inactive
4933427D06Rik (RIKEN cDNA 4933427D06 gene): p65 translocation robust z-score = 1.32; nuclear/cytoplasmic p65 ratio, rep 1 = 1.31; nuclear/cytoplasmic p65 ratio, rep 2 = 1.64; low cell count flag = enough cells to score; activity call = inactive
Cbx7 (chromobox 7): p65 translocation robust z-score = -1.61; nuclear/cytoplasmic p65 ratio, rep 1 = 1.28; nuclear/cytoplasmic p65 ratio, rep 2 = 1.58; low cell count flag = enough cells to score; activity call = active
Rbm38 (RNA binding motif protein 38): p65 translocation robust z-score = -0.21; nuclear/cytoplasmic p65 ratio, rep 1 = 1.31; nuclear/cytoplasmic p65 ratio, rep 2 = 1.19; low cell count flag = enough cells to score; activity call = inactive
Slc52a2: p65 translocation robust z-score = -0.65; nuclear/cytoplasmic p65 ratio, rep 1 = 1.39; nuclear/cytoplasmic p65 ratio, rep 2 = 1.51; low cell count flag = enough cells to score; activity call = inactive
Frmd3 (FERM domain containing 3): p65 translocation robust z-score = 0.71; nuclear/cytoplasmic p65 ratio, rep 1 = 1.71; nuclear/cytoplasmic p65 ratio, rep 2 = 1.55; low cell count flag = enough cells to score; activity call = inactive
Srrm4 (serine/arginine repetitive matrix 4): p65 translocation robust z-score = -0.28; nuclear/cytoplasmic p65 ratio, rep 1 = 1.47; nuclear/cytoplasmic p65 ratio, rep 2 = 1.44; low cell count flag = enough cells to score; activity call = inactive
Pcdhga8 (protocadherin gamma subfamily A, 8): p65 translocation robust z-score = 0; nuclear/cytoplasmic p65 ratio, rep 1 = 1.38; nuclear/cytoplasmic p65 ratio, rep 2 = 1.29; low cell count flag = enough cells to score; activity call = inactive

Continued, starting with the last 2 of the part before.
Srrm4 (serine/arginine repetitive matrix 4): p65 translocation robust z-score = -0.28; nuclear/cytoplasmic p65 ratio, rep 1 = 1.47; nuclear/cytoplasmic p65 ratio, rep 2 = 1.44; low cell count flag = enough cells to score; activity call = inactive
Pcdhga8 (protocadherin gamma subfamily A, 8): p65 translocation robust z-score = 0; nuclear/cytoplasmic p65 ratio, rep 1 = 1.38; nuclear/cytoplasmic p65 ratio, rep 2 = 1.29; low cell count flag = enough cells to score; activity call = inactive
Caml (calcium modulating ligand): p65 translocation robust z-score = -0.89; nuclear/cytoplasmic p65 ratio, rep 1 = 1.55; nuclear/cytoplasmic p65 ratio, rep 2 = 1.54; low cell count flag = enough cells to score; activity call = inactive
Drp2 (dystrophin related protein 2): p65 translocation robust z-score = 1.22; nuclear/cytoplasmic p65 ratio, rep 1 = 1.71; nuclear/cytoplasmic p65 ratio, rep 2 = 1.48; low cell count flag = enough cells to score; activity call = inactive
Cyp24a1 (cytochrome P450, family 24, subfamily a, polypeptide 1): p65 translocation robust z-score = 0.61; nuclear/cytoplasmic p65 ratio, rep 1 = 1.64; nuclear/cytoplasmic p65 ratio, rep 2 = 1.92; low cell count flag = enough cells to score; activity call = inactive
Ces2g (carboxylesterase 2G): p65 translocation robust z-score = -0.01; nuclear/cytoplasmic p65 ratio, rep 1 = 1.25; nuclear/cytoplasmic p65 ratio, rep 2 = 1.41; low cell count flag = enough cells to score; activity call = inactive
Zcchc17 (zinc finger, CCHC domain containing 17): p65 translocation robust z-score = 1.3; nuclear/cytoplasmic p65 ratio, rep 1 = 1.54; nuclear/cytoplasmic p65 ratio, rep 2 = 1.66; low cell count flag = enough cells to score; activity call = inactive
Il21 (interleukin 21): nuclear/cytoplasmic p65 ratio, rep 1 = 1.16; nuclear/cytoplasmic p65 ratio, rep 2 = 1.52; low cell count flag = fewer than 50 cells per well; well left out of scoring; activity call = inactive
